Experimental data taken from publication PMC5762521.
No constants are given. Whether binding was seen depends on the method and setting. Binding seen in cells or lysates may run through a third protein. Some binding calls cover weakened binding; strength is not graded here.

By UniProt entry, the sequences of proteins in these tests, tags left out.
UniProt Q00613: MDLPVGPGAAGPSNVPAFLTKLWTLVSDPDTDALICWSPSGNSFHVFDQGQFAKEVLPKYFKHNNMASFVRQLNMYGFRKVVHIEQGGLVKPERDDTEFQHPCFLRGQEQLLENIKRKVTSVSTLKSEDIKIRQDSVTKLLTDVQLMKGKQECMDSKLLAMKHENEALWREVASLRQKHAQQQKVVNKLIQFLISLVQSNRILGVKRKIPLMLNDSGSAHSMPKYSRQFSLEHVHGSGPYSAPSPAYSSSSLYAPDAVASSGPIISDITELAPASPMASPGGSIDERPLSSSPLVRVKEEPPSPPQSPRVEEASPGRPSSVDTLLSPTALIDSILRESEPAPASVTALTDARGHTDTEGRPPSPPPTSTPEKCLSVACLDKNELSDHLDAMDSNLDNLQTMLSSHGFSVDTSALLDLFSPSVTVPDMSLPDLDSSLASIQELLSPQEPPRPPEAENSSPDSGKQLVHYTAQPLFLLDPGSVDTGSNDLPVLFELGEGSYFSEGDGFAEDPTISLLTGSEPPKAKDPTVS

Molecular target: Heat shock transcription factor-1 (HSF-1) (human (endogenous in HCT-116)) (UniProt Q00613)
Test: co-IP; Total HCT-116 cell lysates (with or without vitexin) incubated with anti-HSF-1 antibody coupled to Dynabeads M-270 Epoxy; SDS-PAGE and immunoblot of the precipitate

binding: binds
B1: Apolipoprotein L1 (ApoL1) (protein, UniProt O14791 28-398)
chain: EEAGARVQQNVPSGTDTGDPQSKPLGDWAAGTMDPESSIFIEDAIKYFKEKVSTQNLLLLLTDNEAWNGFVAAAELPRNEADELRKALDNLARQMIMKDKNWHDKGQQYRNWFLKEFPRLKSELEDNIRRLRALADGVQKVHKGTTIANVVSGSLSISSGILTLVGMGLAPFTEGGSLVLLEPGMELGITAALTGITSSTMDYGKKWWTQAQAHDLVIKSLDKLKEVREFLGENISNFLSLAGNTYQLTRGIGKDIRALRRARANLQSVPHASASRPRVTEPISAESGEQVERVNEPSILEMSRGVKLTDVAPVSFFLVLDVVYLVYESKHLHEGAKSETAEELKKVAQELEEKLNILNNNYKILQADQEL
